{"sequences": {"note": "The chains behind the UniProt entries cited, without tags or fusion partners.", "UniProt B6A876": "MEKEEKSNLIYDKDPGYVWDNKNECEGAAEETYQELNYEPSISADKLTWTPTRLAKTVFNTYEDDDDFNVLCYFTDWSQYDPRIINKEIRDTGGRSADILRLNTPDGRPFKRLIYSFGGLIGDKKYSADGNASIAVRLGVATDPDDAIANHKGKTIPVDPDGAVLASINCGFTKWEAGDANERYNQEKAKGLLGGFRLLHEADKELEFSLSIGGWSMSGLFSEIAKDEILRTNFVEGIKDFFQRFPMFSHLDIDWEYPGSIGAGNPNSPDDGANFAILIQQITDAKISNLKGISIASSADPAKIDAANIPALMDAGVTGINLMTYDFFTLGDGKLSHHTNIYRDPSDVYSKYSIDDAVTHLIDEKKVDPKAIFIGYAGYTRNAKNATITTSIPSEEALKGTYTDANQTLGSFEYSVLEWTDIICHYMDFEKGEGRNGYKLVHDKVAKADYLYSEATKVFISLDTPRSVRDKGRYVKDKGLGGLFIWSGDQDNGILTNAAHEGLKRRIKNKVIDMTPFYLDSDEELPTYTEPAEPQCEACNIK", "UniProt B6A879": "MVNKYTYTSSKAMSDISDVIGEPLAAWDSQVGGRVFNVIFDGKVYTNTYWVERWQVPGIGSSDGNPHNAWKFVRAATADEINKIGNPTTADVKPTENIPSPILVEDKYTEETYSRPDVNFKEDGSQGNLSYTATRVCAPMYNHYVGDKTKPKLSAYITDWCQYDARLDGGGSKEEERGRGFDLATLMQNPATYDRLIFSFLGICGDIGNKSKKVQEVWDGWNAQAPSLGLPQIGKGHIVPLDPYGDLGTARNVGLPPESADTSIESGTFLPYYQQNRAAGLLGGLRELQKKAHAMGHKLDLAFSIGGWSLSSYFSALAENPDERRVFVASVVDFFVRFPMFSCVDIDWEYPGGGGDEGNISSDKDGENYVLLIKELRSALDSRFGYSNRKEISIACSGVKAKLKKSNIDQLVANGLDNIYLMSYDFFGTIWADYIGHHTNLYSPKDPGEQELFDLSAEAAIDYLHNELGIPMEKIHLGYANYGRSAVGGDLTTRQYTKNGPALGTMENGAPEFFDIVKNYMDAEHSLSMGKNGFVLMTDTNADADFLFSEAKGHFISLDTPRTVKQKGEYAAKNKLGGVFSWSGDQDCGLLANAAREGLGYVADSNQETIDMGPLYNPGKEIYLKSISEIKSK"}, "source": "paper PMC10847046", "molecular_target": "Chi1 (UniProt B6A876)", "experiment": "cryo-EM structure; […], Tris buffer pH 7.5); […]", "note": "Results are given in words; binding and its absence hold for the method and conditions named. Some results given as binding are weak or reduced against the parent protein; the word gives no strength.", "data": [{"substance": "Chi2 (from UniProt B6A879 1-633) (enzyme)", "values": [{"measurement": "binding", "result": "binds"}]}]}
